Consider 1 molecule from patent US20210230288A1.

The chains behind the UniProt entries cited, without tags or fusion partners. Where a name states a change or a piece, a line headed by the entry shows the natural chain unless it says otherwise. A line that says so, or that is headed by a name, gives the form on record, which may keep a tag or linker.
cynomolgus PD-L1 (cynomolgus (Macaca fascicularis)) (G7PSE7, form named): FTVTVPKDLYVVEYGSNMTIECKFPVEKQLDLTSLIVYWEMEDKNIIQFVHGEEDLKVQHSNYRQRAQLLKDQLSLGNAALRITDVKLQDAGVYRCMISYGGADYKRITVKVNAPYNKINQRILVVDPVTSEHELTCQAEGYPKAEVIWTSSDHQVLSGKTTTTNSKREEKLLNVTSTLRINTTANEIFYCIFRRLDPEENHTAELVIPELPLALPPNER

No constants are given. Whether binding was seen depends on the method and setting. Some results given as binding are weak or reduced against the parent protein; the word gives no strength.

The experiment deals with cynomolgus PD-L1 (cynomolgus (Macaca fascicularis)) (UniProt G7PSE7). The experiment can be described thus: flow cytometry (FIG. 16B).

B1: CAR comprising the DBDpp pb04 (receptor, not shown: small tags and cut ends)
chain: MGSWYEFTVRLEAIHERLKALGGSEAELAAFEKEIAAFESELQAYKGKGNPEVEILRDDAAFIRRFLQAYRHN
As to B1, the binding result is “binds”.
